Variants at the background level are over-represented here.
B1: tRNA (parent)
chain: GUUCCGUUGGCGUAAUGGUAACGCGUCUCCCUCCUAAGGAGAAGACUGCGGGUUCGAGUCCCGUACGGAACG

Variants of: B1
Test: yeast fitness relative to wild type (ratio to wild type); higher = fitter; tRNA-Arg(CCU), competitive growth, 37 C, YPD
Summary of the method: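 Gene amplicons from the start population and from each of six end populations were read by 100-nucleotide paired-end sequencing. Those end populations came from pooled Saccharomyces cerevisiae strains carrying tRNA-Arg(CCU) gene variants at the native locus, competed in YPD at 37°C for 24 hours. Fitness relative to wild type was worked out from changes in genotype frequencies. Genotypes needed ≥ 100 starting reads, and estimates < 0.5 were set to 0.5.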

U26C G38C G41C A65G and U3G C11U U19C A20U A42C cannot be ordered by yeast fitness: at most 0.5 for the first, at most 0.5 for the second.

First: G12A U13G U19C A21G C49U G52A U59G
Second: U7C C27U A45C C55U
The yeast fitness of the first is higher: 0.525 for the first, at most 0.5 for the second.

C5G C22U U26G U32A U35A A69C and C4U C34U A40C C62U A65U cannot be ordered by yeast fitness: at most 0.5 for the first, at most 0.5 for the second.

Compared with A15G U19C G51C C55U, G18C C33G A36C C46A is lower in yeast fitness: 0.582 for the first, at most 0.5 for the second.

U2C U28A G41A A57C and C5G G41A A43G C60U A70C cannot be ordered by yeast fitness: at most 0.5 for the first, at most 0.5 for the second.

Going from G38C G41C C49U A57G to A15C A36C G48A G67A, the yeast fitness rises from at most 0.5 to 0.541.

G10A A45C U64G and C4G C11A U28G U47G C49G C55G cannot be ordered by yeast fitness: at most 0.5 for the first, at most 0.5 for the second.

A15G C27A C55G and C5G A15U A20G G58A G67A cannot be ordered by yeast fitness: at most 0.5 for the first, at most 0.5 for the second.

U8A G18A A21U U28A C30G and C5U G17C C29A C46G G56A cannot be ordered by yeast fitness: at most 0.5 for the first, at most 0.5 for the second.

U7A U16C G17A C34G A45C G52C and G6U A40G C49A C61G cannot be ordered by yeast fitness: at most 0.5 for the first, at most 0.5 for the second.

C33G G39A C55U and C4G C11A U32C cannot be ordered by yeast fitness: at most 0.5 for the first, at most 0.5 for the second.

U13C C22U C27A G51C and G23C A40U A42C C49A C66A cannot be ordered by yeast fitness: at most 0.5 for the first, at most 0.5 for the second.

C24G U28C C62G G67A and C5U U32G A45C C49A cannot be ordered by yeast fitness: at most 0.5 for the first, at most 0.5 for the second.

G6A C30U G56C and U7G A43U G56C cannot be ordered by yeast fitness: at most 0.5 for the first, at most 0.5 for the second.

U35G A43U G56A and C34G C46U C55U cannot be ordered by yeast fitness: at most 0.5 for the first, at most 0.5 for the second.

Going from C22G G23A G38A G56C to A20U U54C, the yeast fitness rises from at most 0.5 to 0.758.

C11G G12C A20C C24G C55G and G10C U54C cannot be ordered by yeast fitness: at most 0.5 for the first, at most 0.5 for the second.

Going from U13C U53A to A20U U35C, the yeast fitness rises from 0.674 to 0.949.

G17C C24G C46A G68C and C5U A21U C55U cannot be ordered by yeast fitness: at most 0.5 for the first, at most 0.5 for the second.

Going from G12A A43C A69G to G6A C49U G58A, the yeast fitness rises from at most 0.5 to 0.654.

U3C C5A A15U A20G C30G and C5G A42U A45G A69C cannot be ordered by yeast fitness: at most 0.5 for the first, at most 0.5 for the second.

G10A C60U C62U and U16C C33U G68C cannot be ordered by yeast fitness: at most 0.5 for the first, at most 0.5 for the second.

C5G A21G C33A G68C A69U and A21C C24A G56C C60G cannot be ordered by yeast fitness: at most 0.5 for the first, at most 0.5 for the second.

G10A C46A A57G and C34A A42C G50A G56A cannot be ordered by yeast fitness: at most 0.5 for the first, at most 0.5 for the second.

U7G U26C C61U G63C and C22U C24A U26C G39C cannot be ordered by yeast fitness: at most 0.5 for the first, at most 0.5 for the second.

U8G A14U U16C A40U G48C and U13G G39C C49G A65G cannot be ordered by yeast fitness: at most 0.5 for the first, at most 0.5 for the second.

C27A C49U C61A and C5G A21G A65C C66U cannot be ordered by yeast fitness: at most 0.5 for the first, at most 0.5 for the second.

First: C27G G48C C49G
Second: C5A U16A A43G U59A C61A
The yeast fitness of the first is higher: 0.503 for the first, at most 0.5 for the second.

A20G C49G G52A A57C and C24A G48C C61G cannot be ordered by yeast fitness: at most 0.5 for the first, at most 0.5 for the second.

G6C U13C C31G C33A G67A and G6A C27A C30U G41C A43U cannot be ordered by yeast fitness: at most 0.5 for the first, at most 0.5 for the second.

C4U G52A G58A and C4A U26G C29G U47G U59G cannot be ordered by yeast fitness: at most 0.5 for the first, at most 0.5 for the second.

C11A G23A and C31U A42G C66A cannot be ordered by yeast fitness: at most 0.5 for the first, at most 0.5 for the second.

C27U A36C U54A C62U and C5U C27G C33G A42C C61G cannot be ordered by yeast fitness: at most 0.5 for the first, at most 0.5 for the second.

C22A G23A A37G A57G A69U and G41C G52C A69C cannot be ordered by yeast fitness: at most 0.5 for the first, at most 0.5 for the second.

C24G C30U C31G C61G and C31U A40G U53C cannot be ordered by yeast fitness: at most 0.5 for the first, at most 0.5 for the second.

G17C C46G G68A and C31U G41C A43C C60G cannot be ordered by yeast fitness: at most 0.5 for the first, at most 0.5 for the second.

U3G U8A G18C C30G A69C A70G and G12C A20C C31G C66A cannot be ordered by yeast fitness: at most 0.5 for the first, at most 0.5 for the second.

G23A A36G C61U A65U and U7G C24G C27U C29A C66U cannot be ordered by yeast fitness: at most 0.5 for the first, at most 0.5 for the second.

U54A U59C C61G and U7A C46G C62G A70C cannot be ordered by yeast fitness: at most 0.5 for the first, at most 0.5 for the second.

Going from G17C C22G C30U G41C to C4A A20G C61G A65G, the yeast fitness falls from 0.612 to at most 0.5.

First: C30U C46A G51A
Second: U2C U8A G17C G38A U53C C66G
The yeast fitness of the first is higher: 0.608 for the first, at most 0.5 for the second.

U3G G25A G67A and G12A A15U C66U cannot be ordered by yeast fitness: at most 0.5 for the first, at most 0.5 for the second.

Going from C5A A21G G23A G67C to U2A U8C G23A C29G, the yeast fitness falls from 0.591 to at most 0.5.

C4A U8A G17C C31U A65C and U16A C61U G67A G68U cannot be ordered by yeast fitness: at most 0.5 for the first, at most 0.5 for the second.

Going from U8C A43C C49G C61A to U8G C29G G38C G44A C55U C62U, the yeast fitness falls from 0.693 to at most 0.5.

Going from U3C G50A A65U G68A to U3C C5A C66U, the yeast fitness rises from at most 0.5 to 0.605.

Compared with A21C C24A A65C, U35A G41A C55U is higher in yeast fitness: at most 0.5 for the first, 0.539 for the second.

U3C A15C C33G G44C and U47G G50C C66A cannot be ordered by yeast fitness: at most 0.5 for the first, at most 0.5 for the second.

U8C C22A U53A and C31G C34U A40C G67A cannot be ordered by yeast fitness: at most 0.5 for the first, at most 0.5 for the second.

Going from C5G G51A C60A to G39C G48C, the yeast fitness rises from at most 0.5 to 0.688.

G9C U64A G67C A69U and U3A C24U G39A C62A cannot be ordered by yeast fitness: at most 0.5 for the first, at most 0.5 for the second.

A36C A40G A65U and U26A C33G C34G U35A G48C U54A cannot be ordered by yeast fitness: at most 0.5 for the first, at most 0.5 for the second.

C5A G9C U13G U28C G41C A43C A45U C49G U53G A69C and G41A A45U U53G cannot be ordered by yeast fitness: at most 0.5 for the first, at most 0.5 for the second.

Compared with C4G G50C, U7A A15G C34G U59C A69C is lower in yeast fitness: 0.679 for the first, at most 0.5 for the second.

U8C G25C C34G C61U and U47G A57U C66U cannot be ordered by yeast fitness: at most 0.5 for the first, at most 0.5 for the second.

Compared with G51C U54C, C5U A45C A70G is higher in yeast fitness: at most 0.5 for the first, 0.76 for the second.

U16A C60A G67C and C5G C22A U28C A40U U53C C60A cannot be ordered by yeast fitness: at most 0.5 for the first, at most 0.5 for the second.

C11A C55G C62G and C5U A20C U32C A40U G50A G52A A70U cannot be ordered by yeast fitness: at most 0.5 for the first, at most 0.5 for the second.

U3G C30A A40C C46U C60U C66U and U3G G18A G67A cannot be ordered by yeast fitness: at most 0.5 for the first, at most 0.5 for the second.

Going from C11U C55A G58C to U7G G9A A43C, the yeast fitness rises from at most 0.5 to 0.515.

U7A A20G G23A U26G C61U and G51C C55A G68A cannot be ordered by yeast fitness: at most 0.5 for the first, at most 0.5 for the second.

C29U C31U A45U C61U C62G A69C and U3C C5A C24U G58A cannot be ordered by yeast fitness: at most 0.5 for the first, at most 0.5 for the second.

A14C C33A C46A and G6A A15G G58A G68C cannot be ordered by yeast fitness: at most 0.5 for the first, at most 0.5 for the second.

G6A C27G A40U and A15G A42C G51C G67C cannot be ordered by yeast fitness: at most 0.5 for the first, at most 0.5 for the second.

First: U3G U8A C24A
Second: G9A C24G C34G A69U
The yeast fitness of the first is lower: at most 0.5 for the first, 0.533 for the second.

C24G A42U A45G U54C and C24U G44A C60U C62A cannot be ordered by yeast fitness: at most 0.5 for the first, at most 0.5 for the second.

C5G U7G A57G and C30U A40U G51C A57U cannot be ordered by yeast fitness: at most 0.5 for the first, at most 0.5 for the second.

First: U28A C31A
Second: U2C A15U A20U C60G A69U
The yeast fitness of the first is higher: 0.687 for the first, at most 0.5 for the second.

C24A U32C C33U and C24A A37U A40U U54A cannot be ordered by yeast fitness: at most 0.5 for the first, at most 0.5 for the second.

C29A A43G A57U and C4A C24U C60G cannot be ordered by yeast fitness: at most 0.5 for the first, at most 0.5 for the second.

U28C C61G A65G and C11U C27G G44C cannot be ordered by yeast fitness: at most 0.5 for the first, at most 0.5 for the second.

A21U G23A A42C G51C and C24U C33U C61A A69U cannot be ordered by yeast fitness: at most 0.5 for the first, at most 0.5 for the second.

A15U C61G A69U and A15U A21C C24G C29U A42C U59G G67U cannot be ordered by yeast fitness: at most 0.5 for the first, at most 0.5 for the second.

C11A A21G C22U A65G and C5U A15G A20G C27G C33U cannot be ordered by yeast fitness: at most 0.5 for the first, at most 0.5 for the second.

Going from C22A U53C U64A to C5U C27G G68C, the yeast fitness rises from at most 0.5 to 0.577.

U26C U35C U64G C66G and A15U C30G C34U A45G C66U A70C cannot be ordered by yeast fitness: at most 0.5 for the first, at most 0.5 for the second.

First: C4U G39U
Second: U8G A37G A40G
The yeast fitness of the first is higher: 0.834 for the first, at most 0.5 for the second.

C5U A37C A40C G51A C55A G58A G68A and U8A C22U A43G C66A cannot be ordered by yeast fitness: at most 0.5 for the first, at most 0.5 for the second.

G56C G58A G63C A65U and G9C C31G A42C C55U G68A cannot be ordered by yeast fitness: at most 0.5 for the first, at most 0.5 for the second.

U8A A36G C55G A57U C61U and U3A A21C G25U A43C C61A C62U G67C cannot be ordered by yeast fitness: at most 0.5 for the first, at most 0.5 for the second.

U8A U13A C55U A70C and U19A G38C C62G G68C cannot be ordered by yeast fitness: at most 0.5 for the first, at most 0.5 for the second.

U3G A37U G63A and C22G C31A A45U A69C cannot be ordered by yeast fitness: at most 0.5 for the first, at most 0.5 for the second.

U3A U7C G68A and U7A A20G G23A U26G C62U cannot be ordered by yeast fitness: at most 0.5 for the first, at most 0.5 for the second.

For C30A A40C C46U C60U C66U, the yeast fitness was at most 0.5.

— the RNAGym collection of RNA variant scans (doi:10.1126/science.aae0568)
